Results from PubChem BioAssay AID1347426 (Functional Genomics Laboratory (NCATS/FGL), 2020).
About 1,400 (4.5%) of roughly 31,000 sequences were called active.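 How the source made its calls: active means median seed-adjusted z-score above 1 or below -1; inactive means the rest.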 Some of the results follow.

Test: Novel Modifiers of Survival Motor Neuron (SMN) Protein: Gene Identification via Genome-wide siRNA Screen;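 further: luminescence tracks full-length SMN protein made from the SMN2 reporter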
Conditions: HEK293T SMN2-luciferase reporter, siRNA knockdown, 72 h; actives lie on both sides
Procedure, shortened: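 Luciferase signal, proportional to full-length SMN made from an SMN2 cDNA reporter in stable HEK293T cells, was read 72 h after siRNA reverse transfection. Values were expressed as MAD scores after non-targeting-control normalization and log10 conversion; seed analysis flagged off-targets.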

Sequence	median seed-adjusted z-score
GCAACUUCCUAGAACUGUUTT against PCYT1B	inactive: 0.177
GGAGUGCAAAAGGAACGAATT against APIP	inactive: -0.0945
CUGAAUAUGUGCAUCGAUATT against GLS	inactive: 0
CGGCAGAACACGUCUCAGATT against TACSTD2	inactive: -0.681
GCAGGUCAAAUUUCCAUAATT against ZNF175	inactive: -0.0194
GAACUGCAUUGAACUAAAUTT against CD3G	inactive: -0.0274
GCUGAGGAGUUUCUGCGGATT against PARP10	inactive: -0.454
ACGACCACGUGAGAGCCAATT against HAGHL	inactive: -0.334
GGUUGUUCCUCACCCGAUATT against EGF	inactive: 0.00831
GAACAGGGACUGUUAGGAATT against SPRY1	inactive: 0.642
GAACCAUUAUCAAUAAGCUTT against TRAIP	inactive: -0.018
UGGUCCGACUGGUACGACATT against TAC1	inactive: 0.0499
GAAUUUGCCCUAGACUUAATT against OGFOD1	inactive: 0.442
UGUCUGCUAUGAUCUCUUUTT against ZFPL1	inactive: -0.072
GGCUCGCAAUUUUGAGAGATT against THEM2	inactive: 0.449
CGGAAGAACUGGACCAUCATT against CDH4	inactive: 0
GGGAGAGUGGUGAACGUAUTT against CBR1	inactive: -0.6
GGUGUUGUCUUGAGGUACATT against ADAMTS1	inactive: 0.173
CGUCUAUGCCUAUAAAAUATT against ADORA3	inactive: 0
GCCCUGAAGAUAUCGUGAATT against PARVG	inactive: 0.321
CUGGAACAGUGUACCCAAATT against CD2AP	inactive: 0.113
CAUGGAAAAUGAUGACGAATT against PPP4R2	inactive: 0.211
GCUCCUGGAGUUAAGCUUATT against SPINK2	inactive: -0.431
GAAUGCGUCCAGAAAUAAATT against NDUFA11	inactive: -0.722
GGGUGACUCCAGAUCAGCUTT against SLC26A10	inactive: -0.169
CGAGAAAUGUUUAUGAAGATT against NDUFA6	inactive: -0.457
GCAUCAGUGGAGUACAUCATT against TFEC	inactive: -0.0734

Part of the list above in another layout:
GGUUGUUCCUCACCCGAUATT against EGF
  median seed-adjusted z-score: inactive: 0.00831
GGGUGACUCCAGAUCAGCUTT against SLC26A10
  median seed-adjusted z-score: inactive: -0.169

Continuation.

Sequence	median seed-adjusted z-score
GGACAAUCCUUUCAUUAAUTT against HTR3C	inactive: -0.221
GCCGAGUCUCAAUAUCUGUTT against FOSB	inactive: 0.266
GGGUCAUCCUGUUGCCAAUTT against KRTAP5-1	inactive: 0
CAAUCUCCCUGGAGUUGAATT against TRIM68	inactive: -0.628
GGUUUCUAGGUAAUAGUAATT against ORC1L	inactive: -0.536
GCACUUAAUAAGAAUGAAUTT against GPX5	inactive: 0.0205
CCAGUCAUCUGGUUUGUUUTT against RABL2B	inactive: 0.454
CCCUCUACGUGCACAUGUUTT against MC3R	inactive: 0.424
GCCUAUCAAUUGUUCGGGATT against TTF1	active: 1.76
CAUGAACUCUGGAAACAGUTT against POP4	inactive: -0.144
CCUUGGAACCUUUGAAAAATT against ANP32B	inactive: 0
AAAAGAUAAUUAUCCAUGATT against LILRA3	inactive: -0.548
UUAUCACAGAGCAACCUAATT against NUBPL	inactive: 0.105
CAACUUCACUCAGAACCCATT against MARCO	inactive: 0.137
GCAAAGACCUUACGAGAAUTT against RIPK1	inactive: -0.0157
CCAUCUCCUCUGAAACGUATT against RREB1	inactive: -0.414
GUAAUUACCCAGAUCCUAUTT against PIK3CA	inactive: 0.0823
GAUUGAUCCUCAUGCUCCATT against LANCL1	inactive: 0
CCAAGAUGCUAUUCGUUGATT against SERPING1	inactive: -0.244
CGAUGUGCCUAAUCCAGUUTT against CYP51A1	inactive: -0.242
CCUGGGUGAUCGUCAGGUATT against GIPR	inactive: 0.475
CACUCUUUACCUUCGCUUUTT against SHOC2	inactive: -0.403
GCAUGAAUCUAUUGGACCATT against TFAP2B	inactive: 0
GCAUCGUGGUGUCAAGUCATT against ZBTB12	inactive: 0.0993
CAAAGAUCGUAUCUGUAGATT against SDPR	inactive: -0.0738
UAUCGUCGCGAUUACAGAATT against BCLAF1	inactive: -0.823
CGAGCAAUACGGUGAGCAATT against PTRF	inactive: -0.0151
